The values below come from US20260015339A1, “CALIX[4]ARENES WITH HIGH ANTICANCER ACTIVITY” (UNIVERSITE GRENOBLE ALPES, priority 2023, published 2026).

The nature of the series: Deliverability to liposomes from a solution in DMSO. Conditions: to liposomes from a solution in DMSO versus pre-incorporation, 1:1000, F/F0 after 600 s.

Some entries repeat one wording, which the source may state once for all of them.

Take `CCCOc1c2cccc1Cc1cccc(c1OCc1nccn1C)Cc1cccc(c1OCCC)Cc1cccc(c1OCc1nccn1C)C2` [(2)]: the Deliverability entry is “Yes (means that a significant decrease of the fluorescence of encapsulated BCS was observed upon addition of Cu^+ to the liposomes when the calix[4]arene was added to the liposomes from a solution in DMSO (F/F0<0.65 after 600 s))”. On to `C=CCOc1c2cccc1Cc1cccc(c1OCc1nccn1C)Cc1cccc(c1OCC=C)Cc1cccc(c1OCc1nccn1C)C2` [(3)], for which the Deliverability result was “Yes (means that a significant decrease of the fluorescence of encapsulated BCS was observed upon addition of Cu^+ to the liposomes when the calix[4]arene was added to the liposomes from a solution in DMSO (F/F0<0.65 after 600 s))”.

Take `CCOC(=O)COc1c2cccc1Cc1cccc(c1OCc1nccn1C)Cc1cccc(c1OCC(=O)OCC)Cc1cccc(c1OCc1nccn1C)C2` [(4)]: the Deliverability entry is “Yes (means that a significant decrease of the fluorescence of encapsulated BCS was observed upon addition of Cu^+ to the liposomes when the calix[4]arene was added to the liposomes from a solution in DMSO (F/F0<0.65 after 600 s))”.

For the compound `COc1c2cccc1Cc1cccc(c1OCc1nccn1C)Cc1cccc(c1OC)Cc1cccc(c1OCc1nccn1C)C2` [(5)], the Deliverability entry was “Yes (means that a significant decrease of the fluorescence of encapsulated BCS was observed upon addition of Cu^+ to the liposomes when the calix[4]arene was added to the liposomes from a solution in DMSO (F/F0<0.65 after 600 s))”. The entry for `Cn1ccnc1COc1c2cccc1Cc1cccc(c1O)Cc1cccc(c1OCc1nccn1C)Cc1cccc(c1O)C2` [(6)] is “Yes (means that a significant decrease of the fluorescence of encapsulated BCS was observed upon addition of Cu^+ to the liposomes when the calix[4]arene was added to the liposomes from a solution in DMSO (F/F0<0.65 after 600 s))”. The value for `CCCOc1c2cc([N+](=O)[O-])cc1Cc1cccc(c1OCc1nccn1C)Cc1cc([N+](=O)[O-])cc(c1OCCC)Cc1cccc(c1OCc1nccn1C)C2` [(7)] was “Yes (means that a significant decrease of the fluorescence of encapsulated BCS was observed upon addition of Cu^+ to the liposomes when the calix[4]arene was added to the liposomes from a solution in DMSO (F/F0<0.65 after 600 s))”. As for `CCCOc1c2cccc1Cc1cccc(c1OCc1nc3ccccc3n1C)Cc1cccc(c1OCCC)Cc1cccc(c1OCc1nc3ccccc3n1C)C2` [(8)], the Deliverability entry is “Yes (means that a significant decrease of the fluorescence of encapsulated BCS was observed upon addition of Cu^+ to the liposomes when the calix[4]arene was added to the liposomes from a solution in DMSO (F/F0<0.65 after 600 s))”. The value for `CCCOc1c2cccc1Cc1cccc(c1OCc1ncco1)Cc1cccc(c1OCCC)Cc1cccc(c1OCc1ncco1)C2` [(9)] was “Medium (means that the final level reached was much lower upon pre-incorporation (F/F0<0.4 after 600 s) than when adding the calix[4]arene to the liposomes from a solution in DMSO (F/F0=0.4-0.65 after 600 s))”; that for `CCCOc1c2cccc1Cc1cccc(c1OCc1nccs1)Cc1cccc(c1OCCC)Cc1cccc(c1OCc1nccs1)C2` [(10)] was “Medium (means that the final level reached was much lower upon pre-incorporation (F/F0<0.4 after 600 s) than when adding the calix[4]arene to the liposomes from a solution in DMSO (F/F0=0.4-0.65 after 600 s))”; that for `CCCOc1c2cccc1Cc1cccc(c1OCc1ccccn1)Cc1cccc(c1OCCC)Cc1cccc(c1OCc1ccccn1)C2` [(38)] was “Yes (means that a significant decrease of the fluorescence of encapsulated BCS was observed upon addition of Cu^+ to the liposomes when the calix[4]arene was added to the liposomes from a solution in DMSO (F/F0<0.65 after 600 s))”.
